Screening data, single-dose tests

The values are deposited in ChEMBL (CHEMBL3988442, “University of Dundee, Small-Polar-MMV Screening Library” (2021)).

Results are given as percent effect.
The controls that fix the scale are not given in the record; negative values are as filed.
The compounds are a random part of those screened.
Two or more numbers in one place are separate tests of the same structure; such repeats can differ widely.

A: 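Cell assay of Leishmania donovani living inside macrophages; the read-out is not stated. Concentration: 30 µM. The record gives no direction; compounds that gave an IC50 in retests scored well above the rest, so higher reads as stronger inhibition. About 69,000 compounds were tested under these conditions; 1.5% (about 1,000) showed 50% or more at least once.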
B: 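Assay of Toxoplasma gondii numbers, read through their beta-galactosidase reporter with a colour substrate. Tested at 10 µM. Higher reads as fewer parasites (inferred from which compounds were picked for retests). About 67,000 compounds were tested under these conditions; 0.38% (about 260) showed 50% or more at least once.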

- Cc1nnsc1CN(C)C(=O)c1ccc(CSc2nnc[nH]2)o1 | A: -26.7%; B: -19.45%
- [H][C@]12CC[C@]([H])(CN(Cc3nnc(-c4ccccc4)o3)C1)N(CCOC)C2=O | A: 12.94%; B: -1.333%
- COc1ccc(-c2n[nH]cc2C2SCC(=O)Nc3[nH]ncc32)cc1 (centres unmarked) | A: -21.97%; B: -1.559%
- O=C(O)C(F)(F)F.O=C1COC2(CCN(Cc3nccs3)CC2)CN1c1ccccc1 | A: 11.16%; B: -19.73%
- CC(C)(O)C1CCCN(C(=O)Nc2nc(-c3ccccc3)ns2)C1 (centres unmarked) | A: 9.747%; B: 10.46%
- Cc1nsc(C(=O)NCCc2ccccc2)n1 | A: 8.841%; B: -16.06%
- [H][C@@]12OCCN(C(=O)c3ccc(C)o3)[C@@]1([H])CC[C@H]2OCC | A: 20.31%; B: 22.82%
- Cc1nnc(NCc2ccccc2F)c(C#N)c1C | A: 33.53%; B: 14.16%
- Cc1ccc(C2CSCCN2C(=O)C2=CCCC2)o1 (centres unmarked) | A: 15.42%; B: 8.559%
- COCCN(C)C[C@@H]1CN(C(=O)c2ccc(O)c(Cl)c2)C[C@@H]1CO | A: -8.096%; B: -46.04%
- CCCN(Cc1ccccc1C)C(CC)CO (centres unmarked) | A: 14.17%; B: 10.74%
- Cc1cccc(N(CCC(N)=O)CC(=O)Nc2cc(Cl)ccc2Cl)c1 | A: 14.75%; B: -28.39%
- Cl.Nc1nc(C(=O)NCC2CCC3(CCNCC3)CO2)cs1 (centres unmarked) | A: 10.67%; B: -1.241%
- COc1cc(CN2C[C@H](OC)[C@]3(CCCO3)C2)ccc1F | A: -7.83% and 12.88%; B: -5.659%
- O=C(Cc1cnccn1)N1CCC(c2nccn2CC2CC2)CC1 | A: -28.28%; B: 6.732%
- COc1ccc(O[C@H]2COCCN(Cc3cccc4c3OCO4)C2)cc1 | A: -16.47%; B: -1.661%
- COc1cccc(CN(C)C(=O)CN2CCN(CCO)CC2)c1 | A: -2.182%; B: -4.405%
- [H][C@@]12CN(S(=O)(=O)c3ccccc3)C[C@]1([H])OCC(=O)N2Cc1ccccn1 | A: 11.65%; B: 9.807%
- CC(C)N1CCC(CC(=O)NC(C(=O)O)c2ccc(F)cc2)CC1 (centres unmarked) | A: 8.901%; B: -8.171%
- CC(C)NC(=O)CCNC(=O)Nc1cccc(-c2nccn2C)c1 | A: 9.591%; B: 5.7%
- Cc1cnn(CC2CCCN2C(=O)c2cccc(S(C)(=O)=O)c2)c1 (centres unmarked) | A: -0.05059%; B: 6.509%
- CCc1nc(C2CCCN2C(=O)c2ccc(=O)n(CC)n2)no1 (centres unmarked) | A: 2.939%; B: 2.37%
- CC(=O)Nc1nc(C(=O)Nc2ccc(N3CCCCC3)nc2)cs1 | A: 56.06%; B: -3.206%
- Cc1nc(C)c(C(=O)N2CCCc3c(F)ccc(F)c32)o1 | A: 7.637%; B: -11.11%
- Cc1cc(N2CCCC(O)(CN(C)C)CC2)nc(-c2ccccc2)n1 (centres unmarked) | A: 63.47%; B: 1.963%
- O=C(O)C(F)(F)F.O=C(O)C(F)(F)F.O=C(O)C(F)(F)F.[H][C@]12CC(=O)N(Cc3cccc(C)n3)[C@@]1([H])CCN2Cc1ccccn1 | A: -8.634%; B: 3.485%
- CC(C(=O)N1CCN(CCOc2ccccc2)CC1)n1cncn1 (centres unmarked) | A: 10.7%; B: 0.8269%
- [H][C@]12OCCN(C(=O)COc3ccccc3)[C@@]1([H])CC[C@@H]2OCC | A: 3.565%; B: -26.89%
- NC(=O)C1CCN(C(=O)c2ccn(-c3ccc(F)cc3)n2)CC1 | A: 10.25%; B: 16.5%
- Cc1ccc(Oc2cc(CN)ccn2)cc1C.Cl | A: -58.32%; B: -0.5866%
- CCc1n[nH]c(=O)c(C(=O)N2CCSCC2)c1CC | A: 49.91%; B: -17.8%
- [H][C@@]12CCN(C(=O)c3cccnc3OC)C[C@@]1([H])O[C@H](c1noc(C)n1)C2 | A: 0.6043%; B: 12.46%
- [H][C@@]12CCN(C[C@@H]1CN1CCOCC1)[C@@H](CNC(=O)Nc1ccsc1)C2 | A: 12.88%; B: 9.91%
- COc1ccc(SC(C)C(=O)N2CCC(C(=O)N3CCCC3)CC2)cc1 (centres unmarked) | A: 13.19%; B: -2.973%
- O=C1COc2cc(C(=O)NS(=O)(=O)c3ccc(F)cc3)ccc2N1 | A: -6.282%; B: 21.35%
- CS(=O)(=O)N1CCc2[nH]cnc2C12CCN(C(=O)c1ccccc1)CC2 | A: 30.11%; B: 22.71%
- [H][C@]12CC[C@]([H])(CN(c3nnc(C(C)C)s3)C1)N(Cc1ccccc1)C2 | A: 17.82%; B: -2.368%
- NCC1Cc2cc(-c3nccc(N4CCC(O)CC4)n3)cc(F)c2O1 (centres unmarked) | A: 1.279%; B: 3.244%
- O=C([C@@H]1Cc2[nH]cnc2CN1Cc1cc2ccccc2o1)N1CCCC1 | A: -15.4%; B: -10.06%
- Cc1nc(NCCN2CCCC2=O)cc(C2CN(C(C)C)CCO2)n1 (centres unmarked) | A: -14.21%; B: 11.46%
- O=C(Nc1ccccc1OCC(F)F)N[C@@H]1C=C[C@H](CO)C1 | A: -12.7%; B: 7.021%
- O=C(O)C(F)(F)F.[H][C@]12CCC(=O)N(c3cccnc3)[C@@]1([H])CCN2C(=O)Cc1cccs1 | A: -8.692%; B: 6.547%
- Cc1cc(C)cc(NCCC(=O)NC2CCN(C(=O)C3CC3)CC2)c1 | A: 33.1%; B: 13.92%
- CC(C)N1CCC(NC(=O)c2cn(-c3ccc(F)cc3)nn2)C1 (centres unmarked) | A: -11.91%; B: 5.278%

Repeated from the top, 4 entries:

| structure | A | B |
|---|---|---|
| `Cc1nnsc1CN(C)C(=O)c1ccc(CSc2nnc[nH]2)o1` | -26.7% | -19.45% |
| `[H][C@]12CC[C@]([H])(CN(Cc3nnc(-c4ccccc4)o3)C1)N(CCOC)C2=O` | 12.94% | -1.333% |
| `COc1ccc(-c2n[nH]cc2C2SCC(=O)Nc3[nH]ncc32)cc1` (centres unmarked) | -21.97% | -1.559% |
| `O=C(O)C(F)(F)F.O=C1COC2(CCN(Cc3nccs3)CC2)CN1c1ccccc1` | 11.16% | -19.73% |